Measurements reported in publication PMC4858382.
These are yes or no findings as the source states them, for the method shown. Binding seen in cells or lysates may run through a third protein. Some results given as binding are weak or reduced against the parent protein; the word gives no strength. For part of these data: Tags and fused reporters may be left off the sequences shown.

Amino acid sequences for entries named in this document (tags omitted).
UniProt Q9P209: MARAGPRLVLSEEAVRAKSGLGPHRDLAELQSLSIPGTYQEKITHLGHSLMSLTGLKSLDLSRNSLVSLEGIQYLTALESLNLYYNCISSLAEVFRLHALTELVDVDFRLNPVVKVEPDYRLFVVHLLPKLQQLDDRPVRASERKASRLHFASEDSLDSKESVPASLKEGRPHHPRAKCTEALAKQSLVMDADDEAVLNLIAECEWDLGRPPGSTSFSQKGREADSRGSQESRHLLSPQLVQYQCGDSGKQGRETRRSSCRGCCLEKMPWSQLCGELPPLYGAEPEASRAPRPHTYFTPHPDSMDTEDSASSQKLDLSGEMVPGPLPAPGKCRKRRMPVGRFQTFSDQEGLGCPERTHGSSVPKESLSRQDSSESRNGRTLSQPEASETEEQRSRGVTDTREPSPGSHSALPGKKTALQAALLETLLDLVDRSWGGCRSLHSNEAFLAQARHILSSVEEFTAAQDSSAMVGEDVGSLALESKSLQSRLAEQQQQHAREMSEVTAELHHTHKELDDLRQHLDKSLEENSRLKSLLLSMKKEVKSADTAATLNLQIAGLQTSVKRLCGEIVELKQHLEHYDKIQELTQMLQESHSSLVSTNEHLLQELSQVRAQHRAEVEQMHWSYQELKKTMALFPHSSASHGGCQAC

Experiments:
Assay in all cases: co-IP; HEK293T transfected with Myc-mPCM1 fragments for 48 h; lysates in ELB buffer (50 mM Hepes pH 7, 150 mM NaCl, 5 mM EDTA, 0.1% NP-40); anti-Myc antibody on Protein G Sepharose, 4°C; western blot for endogenous satellite proteins
[1] = target: T1, Myc-mPCM1 fragment spanning residues 1–1500 (mouse) (UniProt Q9R0L6)
T1 sequence: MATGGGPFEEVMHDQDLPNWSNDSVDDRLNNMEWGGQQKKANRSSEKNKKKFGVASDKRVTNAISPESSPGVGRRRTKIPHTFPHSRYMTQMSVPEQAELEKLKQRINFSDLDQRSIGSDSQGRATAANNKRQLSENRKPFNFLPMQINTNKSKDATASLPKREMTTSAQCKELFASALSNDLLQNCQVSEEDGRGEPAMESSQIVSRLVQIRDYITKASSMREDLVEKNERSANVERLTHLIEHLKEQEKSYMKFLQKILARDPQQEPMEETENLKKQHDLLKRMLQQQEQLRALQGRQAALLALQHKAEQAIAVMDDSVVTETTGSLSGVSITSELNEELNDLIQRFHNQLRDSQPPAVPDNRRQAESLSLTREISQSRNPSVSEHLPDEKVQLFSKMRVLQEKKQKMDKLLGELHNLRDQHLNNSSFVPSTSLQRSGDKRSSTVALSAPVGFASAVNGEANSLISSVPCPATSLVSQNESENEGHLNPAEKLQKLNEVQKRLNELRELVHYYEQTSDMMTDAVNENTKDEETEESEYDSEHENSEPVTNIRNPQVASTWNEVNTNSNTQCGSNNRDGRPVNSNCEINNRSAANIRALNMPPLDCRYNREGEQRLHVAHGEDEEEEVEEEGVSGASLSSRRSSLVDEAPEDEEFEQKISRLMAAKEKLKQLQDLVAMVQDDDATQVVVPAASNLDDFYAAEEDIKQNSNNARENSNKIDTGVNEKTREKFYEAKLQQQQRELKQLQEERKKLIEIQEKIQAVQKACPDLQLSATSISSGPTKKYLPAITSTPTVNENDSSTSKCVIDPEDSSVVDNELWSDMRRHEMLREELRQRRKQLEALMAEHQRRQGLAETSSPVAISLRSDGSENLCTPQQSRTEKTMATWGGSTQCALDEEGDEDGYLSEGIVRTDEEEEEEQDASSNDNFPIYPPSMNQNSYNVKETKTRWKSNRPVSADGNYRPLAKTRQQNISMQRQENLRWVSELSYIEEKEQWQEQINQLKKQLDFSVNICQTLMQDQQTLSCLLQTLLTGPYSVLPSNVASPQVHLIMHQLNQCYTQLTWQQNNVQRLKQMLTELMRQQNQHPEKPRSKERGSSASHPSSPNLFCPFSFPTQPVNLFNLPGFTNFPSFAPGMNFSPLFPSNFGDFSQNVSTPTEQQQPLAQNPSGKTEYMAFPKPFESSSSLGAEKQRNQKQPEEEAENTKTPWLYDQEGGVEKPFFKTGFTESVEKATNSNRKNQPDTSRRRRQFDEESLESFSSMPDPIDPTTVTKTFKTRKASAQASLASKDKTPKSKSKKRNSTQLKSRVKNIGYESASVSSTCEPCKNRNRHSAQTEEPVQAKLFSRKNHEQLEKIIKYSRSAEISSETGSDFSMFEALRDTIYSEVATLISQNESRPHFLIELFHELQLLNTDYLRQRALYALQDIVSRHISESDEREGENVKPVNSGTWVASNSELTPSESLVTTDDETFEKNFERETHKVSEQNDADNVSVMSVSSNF

[2] = target: T2, Myc-mPCM1 fragment spanning residues 1–1200 (mouse) (UniProt Q9R0L6)
T2 sequence: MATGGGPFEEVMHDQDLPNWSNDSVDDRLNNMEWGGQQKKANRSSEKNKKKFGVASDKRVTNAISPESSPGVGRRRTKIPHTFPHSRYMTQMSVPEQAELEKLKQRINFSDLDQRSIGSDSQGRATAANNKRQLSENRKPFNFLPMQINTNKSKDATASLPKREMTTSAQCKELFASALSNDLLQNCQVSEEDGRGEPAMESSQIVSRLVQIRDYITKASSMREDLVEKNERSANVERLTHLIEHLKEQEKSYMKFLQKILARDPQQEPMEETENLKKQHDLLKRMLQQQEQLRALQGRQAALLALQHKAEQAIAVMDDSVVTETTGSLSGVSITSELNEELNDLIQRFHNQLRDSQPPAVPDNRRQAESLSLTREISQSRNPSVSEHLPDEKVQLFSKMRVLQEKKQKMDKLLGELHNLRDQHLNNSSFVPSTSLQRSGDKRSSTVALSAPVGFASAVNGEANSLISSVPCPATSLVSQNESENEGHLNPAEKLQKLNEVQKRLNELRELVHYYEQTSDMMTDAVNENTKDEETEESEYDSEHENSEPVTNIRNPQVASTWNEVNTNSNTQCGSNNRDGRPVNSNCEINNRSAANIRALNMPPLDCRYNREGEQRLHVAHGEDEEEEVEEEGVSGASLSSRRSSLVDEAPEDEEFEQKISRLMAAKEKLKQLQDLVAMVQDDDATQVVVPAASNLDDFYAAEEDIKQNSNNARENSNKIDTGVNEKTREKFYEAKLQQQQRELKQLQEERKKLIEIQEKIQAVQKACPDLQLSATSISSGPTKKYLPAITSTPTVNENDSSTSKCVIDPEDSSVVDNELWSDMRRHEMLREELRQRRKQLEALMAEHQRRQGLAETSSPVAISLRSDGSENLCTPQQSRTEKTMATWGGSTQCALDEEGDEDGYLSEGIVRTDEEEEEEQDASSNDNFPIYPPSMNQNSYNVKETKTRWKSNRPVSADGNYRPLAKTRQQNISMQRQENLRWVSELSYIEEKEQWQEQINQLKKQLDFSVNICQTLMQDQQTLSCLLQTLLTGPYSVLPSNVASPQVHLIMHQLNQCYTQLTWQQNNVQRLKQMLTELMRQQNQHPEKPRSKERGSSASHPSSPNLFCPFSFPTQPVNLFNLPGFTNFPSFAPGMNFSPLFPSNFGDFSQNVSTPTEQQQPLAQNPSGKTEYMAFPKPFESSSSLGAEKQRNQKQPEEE

[3] = target: Myc-tagged full-length mouse PCM1 (mouse) (UniProt Q9R0L6)

Measured: binding

Cep72, endogenous (from UniProt Q9P209 1-647)
binds: all assays above

B1: AZI1/Cep131, endogenous (protein, UniProt Q9UPN4 1-1083)
chain: MKGTRAIGSVPERSPAGVDLSLTGLPPPVSRRPGSAATTKPIVRSVSVVTGSEQKRKVLEATGPGGSQAINNLRRSNSTTQVSQPRSGSPRPTEPTDFLMLFEGSPSGKKRPASLSTAPSEKGATWNVLDDQPRGFTLPSNARSSSALDSPAGPRRKECTVALAPNFTANNRSNKGAVGNCVTTMVHNRYTPSERAPPLKSSNQTAPSLNNIIKAATCEGSESSGFGKLPKNVSSATHSARNNTGGSTGLPRRKEVTEEEAERFIHQVNQATVTIQRWYRHQVQRRGAGAARLEHLLQAKREEQRQRSGEGTLLDLHQQKEAARRKAREEKARQARRAAIQELQQKRALRAQKASTAERGPPENPRETRVPGMRQPAQELSPTPGGTAHQALKANNTGGGLPAAGPGDRCLPTSDSSPEPQQPPEDRTQDVLAQDAAGDNLEMMAPSRGSAKSRGPLEELLHTLQLLEKEPDVLPRPRTHHRGRYAWASEVTTEDDASSLTADNLEKFGKLSAFPEPPEDGTLLSEAKLQSIMSFLDEMEKSGQDQLDSQQEGWVPEAGPGPLELGSEVSTSVMRLKLEVEEKKQAMLLLQRALAQQRDLTARRVKETEKALSRQLQRQREHYEATIQRHLAFIDQLIEDKKVLSEKCEAVVAELKQEDQRCTERVAQAQAQHELEIKKLKELMSATEKARREKWISEKTKKIKEVTVRGLEPEIQKLIARHKQEVRRLKSLHEAELLQSDERASQRCLRQAEELREQLEREKEALGQQERERARQRFQQHLEQEQWALQQQRQRLYSEVAEERERLGQQAARQRAELEELRQQLEESSSALTRALRAEFEKGREEQERRHQMELNTLKQQLELERQAWEAGRTRKEEAWLLNREQELREEIRKGRDKEIELVIHRLEADMALAKEESEKAAESRIKRLRDKYEAELSELEQSERKLQERCSELKGQLGEAEGENLRLQGLVRQKERALEDAQAVNEQLSSERSNLAQVIRQEFEDRLAASEEETRQAKAELATLQARQQLELEEVHRRVKTALARKEEAVSSLRTQHEAAVKRADHLEELLEQHRRPTPSTK
binds: all assays above
